What was measured:
in vitro = settings: human, Caco-2
[1] = fraction absorbed, oral; cited from earlier work

In the case of `COC(=O)C1=C(C)NC(C)=C(C(=O)OC)C1c1ccccc1[N+](=O)[O-]` [nifedipine, reference compound], the Papp (in vitro) is given as 42.4 ± 4.4 ×10⁻⁶ cm/s and the “reported human Fa” value [1] is given as 100 [8] %.
